The nature of data set [1]: general procedure: Fmoc solid-phase peptide synthesis; Aad(tBu) loaded trityl resin; HBTU, TBTU, HATU with N,N-diisopropylethylamine. Conditions: whole synthesis, scale 0.083 mmol.
Data set [2] in a line: general procedure: Fmoc solid-phase peptide synthesis; Rink amide AM resin; HBTU, TBTU, HATU with N,N-diisopropylethylamine. Conditions: whole synthesis, scale 0.1 mmol.
Data set [3] can be described thus: general procedure: Fmoc solid-phase peptide synthesis; trityl resin; HBTU, TBTU, HATU with N,N-diisopropylethylamine. Conditions: whole synthesis, scale 0.15 mmol.

Regarding “2-CH3O-1-naphthyl-CO—Smp—Glu—Glu—Bta—Aad—NHtBu”, the isolated mass in data set [1] is listed as 13 mg.
The substance “2-CH3O-Naphtyl-1-CO—Smp—Glu—Glu—Nal—Glu—NH2” returned an isolated mass in data set [2] of 25 mg.
As for “2-EtO-1-naphthyl -1-CO—Smp—Glu—Glu—Bta—Glu—NH2”, in data set [2], the isolated mass is on record as 22 mg.
On to “2-EtO-1-naphthyl-CO—Smp—Nva-(3-Me)Pro—Bta—Aad—NHtBu”, for which, in data set [3], the crude mass stood at 105 mg and the crude yield was determined as 66%.

Source of the values: patent US20020183249A1 (priority 1999, published 2002).
